The source of these data is publication PMC4749977, “Alp7/TACC-Alp14/TOG generates long-lived, fast-growing MTs by an unconventional mechanism” (Scientific Reports, 2016).

These are yes or no findings as the source states them, for the method shown. In cells and extracts the contact can be indirect. Binding can be weak; no strength is given. Sequences can lack the tags named with a protein.

The target of the assay is T1, Alp14 with an AviTag, in Sf9 lysate on monomeric avidin agarose (S. pombe) (UniProt O94534).
T1 sequence (chain, biotin on the AviTag (BirA ligase co-expressed to ensure biotinylation)): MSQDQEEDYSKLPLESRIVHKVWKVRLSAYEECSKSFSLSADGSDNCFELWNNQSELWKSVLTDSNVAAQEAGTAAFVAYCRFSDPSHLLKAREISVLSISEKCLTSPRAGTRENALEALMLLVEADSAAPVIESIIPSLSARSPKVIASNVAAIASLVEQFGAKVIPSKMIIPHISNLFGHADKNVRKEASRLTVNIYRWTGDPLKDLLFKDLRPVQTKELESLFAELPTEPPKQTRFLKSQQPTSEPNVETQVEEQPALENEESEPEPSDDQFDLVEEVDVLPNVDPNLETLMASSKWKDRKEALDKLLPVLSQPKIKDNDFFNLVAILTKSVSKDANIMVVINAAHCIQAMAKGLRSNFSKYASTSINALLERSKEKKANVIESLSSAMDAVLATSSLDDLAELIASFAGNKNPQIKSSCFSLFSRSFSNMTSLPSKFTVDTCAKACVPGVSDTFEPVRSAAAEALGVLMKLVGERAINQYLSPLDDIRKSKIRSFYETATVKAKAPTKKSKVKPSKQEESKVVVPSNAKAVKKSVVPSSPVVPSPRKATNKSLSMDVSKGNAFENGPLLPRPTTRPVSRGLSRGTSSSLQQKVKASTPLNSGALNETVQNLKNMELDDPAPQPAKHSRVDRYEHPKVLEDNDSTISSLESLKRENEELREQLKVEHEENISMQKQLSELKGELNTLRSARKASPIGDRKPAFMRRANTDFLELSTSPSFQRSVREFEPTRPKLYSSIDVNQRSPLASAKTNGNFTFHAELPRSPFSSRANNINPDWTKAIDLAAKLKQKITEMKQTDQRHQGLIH
Briefly: pull-down; Avi-tagged Alp14 from Sf9 lysate supernatant held on monomeric avidin agarose; wash with 100 mM NaPO4 pH 7.2, 150 mM NaCl only (without the second wash at 450 mM NaCl).

Turning to insect cell tubulin (complex), the binding entry is recorded as “binds”.
